Results as given in article PMC5833440.
Results are given in words; binding and its absence hold for the method and conditions named. Binding seen in cells or lysates may run through a third protein. Some results given as binding are weak or reduced against the parent protein; the word gives no strength.

Chains of the proteins cited; added tags and fusions are not shown.
UniProt O88498: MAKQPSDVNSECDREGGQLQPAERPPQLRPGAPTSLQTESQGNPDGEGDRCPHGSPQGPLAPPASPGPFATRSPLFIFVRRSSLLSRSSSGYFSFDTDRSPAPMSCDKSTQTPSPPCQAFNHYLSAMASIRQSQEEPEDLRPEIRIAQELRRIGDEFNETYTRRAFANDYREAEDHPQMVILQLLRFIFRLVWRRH

Experiments:
[1] = molecular target: Bim (rat (endogenous in primary ONH astrocytes)) (UniProt O88498); assay: condition: only cells treated with forskolin (10 uM) plus H89 (10 uM) for 1 h; co-IP; as a1, but ONH astrocytes treated with forskolin (10 uM) plus the PKA inhibitor H89 (10 uM) for 1 h
[2] = molecular target: Bim (rat (endogenous in primary ONH astrocytes)) (UniProt O88498); assay: co-IP; lysates of primary rat ONH astrocytes treated with forskolin (10 uM) for 1 h (untreated and H89 alone also in the panel); co-IP lysis buffer (20 mM Tris-Cl pH 7.4, 135 mM NaCl, 1.5 mM MgCl2, 1 mM EGTA, 10% glycerol, 1% Triton X-100); IP with rabbit polyclonal anti-Bim and Protein A/G PLUS-Agarose, blot for Bcl-xL

Substance: Bcl-xL (from UniProt P53563-1 1-233)
- binding [1]: no binding
- binding [2]: binds
